From PMC11589570, “Critical assessment of LC3/GABARAP ligands used for degrader development and ligandability of LC3/GABARAP binding pockets” (Nature Communications, 2024)
Where “and” joins values, the source holds several entries; their conditions need not be identical. Equal entries are not always repeated. This continues a long series; more values of the same kind are listed elsewhere.

Test system: U2OS cells
Test: Cell growth assay (IncuCyte confluence over 72 h)
Assay type: cell-based
Design: key: % of well area covered by cells (confluence)
Conditions: listed as KT1
Summary of the method: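 U2OS cells were grown in DMEM with 10% FBS for 24 h before treatment. Confluence was then tracked by IncuCyte phase imaging over 72 h and expressed as % of well area covered by cells. Each point is the average of three wells.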

Structure (SMILES): Cc1ccc(C)c(S(=O)(=O)Nc2cc(SCC(=O)O)c(O)c3ccccc23)c1 [compound 8]
- U2OS cell growth (100 nM, time 10 h): 31.5931 and 32.9555 and 37.7058
- U2OS cell growth (100 nM, time 12 h): 26.9508 and 28.1158 and 29.7395
- U2OS cell growth (100 nM, time 14 h): 26.4964 and 29.601 and 48.1091
- U2OS cell growth (100 nM, time 18 h): 42.328 and 38.9711 and 54.3004
- U2OS cell growth (100 nM, time 20 h): 35.5557 and 29.0344 and 42.8704
- U2OS cell growth (100 nM, time 22 h): 37.3905 and 39.4392 and 43.2741
- U2OS cell growth (100 nM, time 24 h): 49.3463 and 49.8246 and 78.7066
- U2OS cell growth (100 nM, time 26 h): 34.0436 and 38.6927 and 43.7241
- U2OS cell growth (100 nM, time 28 h): 36.8529 and 43.4901 and 66.3645
- U2OS cell growth (100 nM, time 30 h): 29.3708 and 38.3295 and 35.6751
- U2OS cell growth (100 nM, time 32 h): 40.419 and 35.9753 and 49.3313
- U2OS cell growth (100 nM, time 34 h): 54.5574 and 57.2358 and 66.159
- U2OS cell growth (100 nM, time 36 h): 53.407 and 53.3742 and 57.8264
- U2OS cell growth (100 nM, time 38 h): 67.7197 and 49.4083 and 58.7768
- U2OS cell growth (100 nM, time 40 h): 48.7069 and 57.3461 and 72.4337
- U2OS cell growth (100 nM, time 42 h): 62.1849 and 63.0149 and 74.6942
- U2OS cell growth (100 nM, time 44 h): 60.4797 and 65.2196 and 66.3725
- U2OS cell growth (100 nM, time 46 h): 60.2129 and 61.9163 and 66.7853
- U2OS cell growth (100 nM, time 48 h): 59.2222 and 63.4975 and 74.4608
- U2OS cell growth (100 nM, time 50 h): 78.0116 and 79.7739 and 84.4744
- U2OS cell growth (100 nM, time 52 h): 75.0931 and 79.693 and 78.4583
- U2OS cell growth (100 nM, time 54 h): 86.209 and 91.8945 and 91.2675
- U2OS cell growth (100 nM, time 56 h): 73.7258 and 83.2836 and 86.8462
- U2OS cell growth (100 nM, time 60 h): 77.9364 and 85.0442 and 89.7625
- U2OS cell growth (100 nM, time 62 h): 77.8397 and 84.6221 and 95.3063
- U2OS cell growth (100 nM, time 64 h): 88.1953 and 92.1987 and 97.3616
- U2OS cell growth (100 nM, time 66 h): 83.6038 and 87.261 and 88.02
- U2OS cell growth (100 nM, time 68 h): 85.2104 and 86.3513 and 89.3641
- U2OS cell growth (100 nM, time 70 h): 93.7309 and 93.4137 and 96.6674
- U2OS cell growth (100 nM, time 72 h): 94.4479 and 95.5701 and 96.9216
- U2OS cell growth (500 nM, time 10 h): 28.4962 and 26.957 and 38.9718
- U2OS cell growth (500 nM, time 12 h): 30.4808 and 36.8352 and 30.4708
- U2OS cell growth (500 nM, time 14 h): 33.407 and 30.8821 and 40.3772
- U2OS cell growth (500 nM, time 16 h): 27.4163 and 27.2976 and 48.5558
- U2OS cell growth (500 nM, time 18 h): 37.2867 and 37.8143 and 41.6502
- U2OS cell growth (500 nM, time 20 h): 29.1636 and 33.7176 and 36.6854
- U2OS cell growth (500 nM, time 22 h): 36.8381 and 35.9409 and 41.3032
- U2OS cell growth (500 nM, time 24 h): 52.3879 and 57.7945 and 59.3594
- U2OS cell growth (500 nM, time 26 h): 46.5212 and 38.999 and 45.0769
- U2OS cell growth (500 nM, time 28 h): 43.0232 and 43.7697 and 48.1427
- U2OS cell growth (500 nM, time 30 h): 45.8392 and 43.4464 and 54.8064
- U2OS cell growth (500 nM, time 32 h): 49.1408 and 45.6295 and 46.7112
- U2OS cell growth (500 nM, time 34 h): 58.5367 and 56.8355 and 62.0469
- U2OS cell growth (500 nM, time 36 h): 59.2451 and 42.1843 and 57.1739
- U2OS cell growth (500 nM, time 38 h): 57.4335 and 49.4542 and 59.1026
- U2OS cell growth (500 nM, time 40 h): 76.7002 and 52.8257 and 54.0973
- U2OS cell growth (500 nM, time 42 h): 60.2047 and 61.5836 and 63.6306
- U2OS cell growth (500 nM, time 44 h): 82.3521 and 59.6693 and 67.7339
- U2OS cell growth (500 nM, time 46 h): 69.353 and 60.7941 and 67.9507
- U2OS cell growth (500 nM, time 48 h): 73.1294 and 57.9166 and 67.0995
- U2OS cell growth (500 nM, time 50 h): 83.5301 and 70.5108 and 83.6801
- U2OS cell growth (500 nM, time 52 h): 73.2069 and 70.6896 and 78.3429
- U2OS cell growth (500 nM, time 54 h): 95.0981 and 85.7145 and 89.5598
- U2OS cell growth (500 nM, time 56 h): 87.6208 and 85.6523 and 84.5499
- U2OS cell growth (500 nM, time 58 h): 82.305 and 77.6129
- U2OS cell growth (500 nM, time 60 h): 95.4886 and 86.1951 and 89.381
- U2OS cell growth (500 nM, time 62 h): 97.5509 and 90.1603 and 87.1942
- U2OS cell growth (500 nM, time 64 h): 94.8805 and 89.2154 and 93.8653
- U2OS cell growth (500 nM, time 66 h): 95.1037 and 85.1433 and 92.6081
- U2OS cell growth (500 nM, time 68 h): 96.8788 and 89.8779 and 94.3714
- U2OS cell growth (500 nM, time 70 h): 97.3087 and 94.6633 and 92.3599
- U2OS cell growth (500 nM, time 72 h): 96.4304 and 92.0092 and 95.1657
- U2OS cell growth (1 uM, time 10 h): 30.7878 and 21.8524
- U2OS cell growth (1 uM, time 12 h): 32.6568 and 35.5896 and 27.3431
- U2OS cell growth (1 uM, time 14 h): 36.1298 and 31.3296 and 28.0135
- U2OS cell growth (1 uM, time 16 h): 29.9939 and 32.2018 and 27.3132
- U2OS cell growth (1 uM, time 18 h): 31.6247 and 44.4237 and 28.196
- U2OS cell growth (1 uM, time 20 h): 30.8219 and 33.3943 and 27.7551
- U2OS cell growth (1 uM, time 22 h): 32.4562 and 32.7161 and 26.527
- U2OS cell growth (1 uM, time 24 h): 52.4047 and 53.4695 and 41.5137
- U2OS cell growth (1 uM, time 26 h): 41.9077 and 44.3364 and 37.0535
- U2OS cell growth (1 uM, time 28 h): 41.5284 and 47.8561 and 35.6154
- U2OS cell growth (1 uM, time 30 h): 44.2919 and 41.4619 and 39.92
- U2OS cell growth (1 uM, time 32 h): 38.4768 and 39.8918 and 30.4696
- U2OS cell growth (1 uM, time 34 h): 52.3604 and 53.567 and 46.299
- U2OS cell growth (1 uM, time 36 h): 41.3591 and 50.0279 and 43.6836
- U2OS cell growth (1 uM, time 38 h): 46.0761 and 54.3725 and 45.166
- U2OS cell growth (1 uM, time 40 h): 48.2768 and 60.4319 and 38.2819
- U2OS cell growth (1 uM, time 42 h): 62.575 and 63.236 and 58.7517
- U2OS cell growth (1 uM, time 44 h): 57.6562 and 62.0966 and 51.4455
- U2OS cell growth (1 uM, time 46 h): 70.7802 and 58.8381 and 56.8545
- U2OS cell growth (1 uM, time 48 h): 58.9669 and 58.1065 and 55.8487
- U2OS cell growth (1 uM, time 50 h): 63.6319 and 71.2329 and 62.1028
- U2OS cell growth (1 uM, time 52 h): 70.1841 and 80.67 and 64.5429
- U2OS cell growth (1 uM, time 54 h): 81.8222 and 85.9637 and 71.6847
- U2OS cell growth (1 uM, time 56 h): 89.4356 and 92.1968 and 84.8875
- U2OS cell growth (1 uM, time 58 h): 76.3009 and 85.3672 and 76.6991
- U2OS cell growth (1 uM, time 60 h): 88.1065 and 92.0789 and 89.6687
- U2OS cell growth (1 uM, time 62 h): 88.1372 and 90.3744 and 82.0129
- U2OS cell growth (1 uM, time 64 h): 84.8463 and 96.8412 and 86.0509
- U2OS cell growth (1 uM, time 66 h): 82.1046 and 88.8888 and 79.023
- U2OS cell growth (1 uM, time 68 h): 86.6836 and 93.3764 and 90.7052
- U2OS cell growth (1 uM, time 70 h): 93.567 and 88.0961 and 92.0556
